According to PubChem BioAssay AID2685 (National Center for Advancing Translational Sciences (NCATS), 2010):
Values joined by “and” are separate entries in the source; they are usually repeats but may differ in a detail not shown here. Identical values can stand only once. The list shows a part of the results. Shown are side measurements of this screen, not its main read-out; they come without a call. Compounds called inactive in the main read-out are mostly missing here. Words in brackets tell the shape of the fitted curve; partial curves, single points and poor fits give uncertain potencies.

Assay: qHTS Assay for Lipid Storage Modulators in Drosophila S3 Cells;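 for cell number change: cells counted by Cell Tracker Red CMTPX staining in the red channel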
Details: BODIPY lipid droplet fluorescence, 18-24 h; for cell number change: measured here: cell count max response, cells fed with added oleic acid
In short: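 Drosophila S3 cells loaded with oleic acid (400 uM, as added) and compounds at several concentrations; lipid droplets imaged by 488-nm laser-scanning cytometry, 500–530 nm intensity and object ratio to cell channel. Percent activity normalized to 20 uM Triacsin C.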

[1] = measured here: lipid fluorescence (Fed channel) AC50, cells fed with added oleic acid
[2] = measured here: cell number channel AC50, cells fed with added oleic acid

Row | Structure (SMILES) | cell number change | AC50 [1] | AC50 [2]
1 | Cc1ccc(S(=O)(=O)N2CCCC2)cc1C(=O)NCC(C)(C)N1CCOCC1 | -17.2% | 23.1 µM [falling, single point] | 
2 | O=C(Nc1cccc(C(F)(F)F)c1)C1=CC=CN2CCS(=O)(=O)N=C12 | -40.3% | 3.66 µM [falling, single point] | 29.1 µM [falling, single point]
3 | O=C(O)C1CCCN1S(=O)(=O)c1ccc(Br)s1 (centres undefined) (tested in a mixture with another compound) | -107% | 23.1 µM [falling, partial curve, poor fit] | 29.1 µM [falling, partial curve]
4 | CC(C)(C)c1ccc(OCCC(=O)Nc2ccc(N3CCOCC3)cc2N2CCOCC2)cc1 | 90% |  | 2.91 µM [rising, full curve]
5 | COc1ccc(O)c(-c2cc(C(F)(F)C(F)F)nc(-c3ccccc3)n2)c1 | 1.23% | 0.58 µM [falling, full curve] | 
6 | COc1ccc2nc(Cl)c(C3CC(c4ccco4)=NN3C(=O)CCC(=O)O)cc2c1 (centres undefined) | -3.21% | 6.51 µM [rising, single point] | 7.31 µM [rising, single point]
7 | O=C1CC(SCc2nc3ccccc3[nH]2)C(=O)N1c1cccc(F)c1 (centres undefined) | -4.88% | 29.1 µM [falling, single point] | 
8 | Cc1ccc(NC(=O)Cc2ccc(Cl)c(Cl)c2)cc1S(=O)(=O)N(C)C | -16.7% | 1.03 µM [rising, full curve, poor fit] | 0.116 µM [falling, full curve, poor fit]
9 | COc1ccc2c(C(=O)CN3CCC(C)CC3)c[nH]c2c1 | 46.1% | 0.82 µM [falling, single point] | 16.4 µM [rising, single point]
10 | O=C(CCN1CCCCO1)N1CCCC(Nc2cccc(F)c2)C1 (centres undefined) | -9.19% | 14.6 µM [falling, partial curve, poor fit] | 
11 | O=C(CN(c1ccc2c(c1)OCCO2)S(=O)(=O)c1ccccc1)Nc1ccc2c(c1)OCO2 | -24.4% | 1.64 µM [rising, partial curve, poor fit] | 
12 | Cc1ccc(NC(=O)CCC(=O)NCCO)cc1 | -12.3% | 2.31 µM [falling, partial curve] | 1.64 µM [falling, partial curve]
13 | C=CCn1c(SCC(=O)Nc2ccc3c(c2)CCC3)nnc1-c1cccs1 | 0.811% |  | 
14 | O=C(Cn1c(=O)oc2cc(S(=O)(=O)NCc3ccccc3)ccc21)NCc1ccco1 | 3.03% |  | 
15 | O=C(CC1CCCC1)Nc1cccc(Br)c1 | 16.7% | 6.51 µM [falling, partial curve, poor fit] | 
16 | O=C1CC(c2ccccc2)NN1 (centres undefined) | 6.88% | 0.58 µM [falling, full curve] | 0.00461 µM [falling, full curve, poor fit]
17 | Cc1ccc(C(=O)N2CCC(C(=O)NC3CCCCCC3)CC2)cc1 | 4.5% |  | 
18 | O=C(Cc1csc(-c2cccc(Cl)c2)n1)Nc1cccc(S(=O)(=O)NC2=NCCC2)c1 | 32.8% |  | 4.61 µM [rising, full curve, poor fit]
19 | CCc1nn(C(C)C(=O)NCc2ccc(Cl)cc2)c(=O)c2cc3occc3n12 (centres undefined) | 0.382% | 29.1 µM [rising, single point] | 

Row | Structure (SMILES) | cell number change | AC50 [1] | AC50 [2]
20 | O=C(NCCCN1CCCC1=O)c1ccc(OCc2ccccc2)cc1 | -36.6% |  | 0.0103 µM [falling, full curve, poor fit]
21 | CCC(CC)C(=O)NCc1ccc(Cl)cc1 |  | 1.16 µM [falling, full curve] | 0.92 µM [falling, full curve]
22 | Cc1ccc(CNC(=O)CNC(=O)c2c(C)nn(C)c2Cl)cc1 |  | 0.184 µM [falling, full curve, poor fit] | 
23 | CCOc1ccc(-c2c(C(=O)N/N=C/c3ccc(C)o3)nnn2-c2nonc2N)cc1 | 16.5% |  | 
24 | COc1ccc(N2CCN(C(=O)c3ccc(CNc4c(N5CCOCC5)c(=O)c4=O)cc3)CC2)cc1 | 20.4% | 29.1 µM [rising, single point] | 
25 | COc1ccc(N(CC(=O)NCc2ccc(F)cc2)C(=O)CCC(=O)Nc2nccs2)cc1 | 13.5% |  | 
26 | Cc1ccc2nc(NC3=NCN(CCc4ccccc4)CN3)nc(C)c2c1 | 1.89% |  | 
27 | CC(C)CC1Nc2ncnc(N3CCCCC3)c2N(Cc2ccc(Br)cc2)C1=O (centres undefined) | -10.1% | 6.51 µM [falling, single point] | 
28 | O=C(OCn1nnc2ccccc2c1=O)c1ccc(N2CCOCC2)c([N+](=O)[O-])c1 |  | 2.91 µM [rising, partial curve] | 
29 | CCCN1CCN(CCCNC(=S)Nc2ccc(OC)cc2)CC1 | -58.1% | 0.58 µM [falling, full curve] | 0.58 µM [falling, full curve]
30 | Cc1ccc(S(=O)(=O)N2CCC(=O)N(C(COCc3ccccc3)C(C)C)CC2)cc1 (centres undefined) | 5.86% | 0.731 µM [falling, single point] | 
31 | Cc1ccc(S(=O)(=O)N(C)C)cc1NC(=O)c1cc(=O)c2ccccc2o1 | 7.26% | 0.0651 µM [falling, full curve, poor fit] | 
32 | CCCCCCCOc1ccc(C(=O)Nc2cccnc2)cc1 | -4.74% | 29.1 µM [falling, single point] | 
33 | O=C(Nc1cccc(Cl)c1)Nc1c[nH]c(=O)[nH]c1=O | -9.72% |  | 
34 | O=C(NCCCN1CCCCC1)c1ccc(CS(=O)c2ccc(Cl)cc2)o1 (centres undefined) | -17.4% | 29.1 µM [falling, single point] | 
35 | O=C(NCc1cc([N+](=O)[O-])ccc1O)c1cccnc1Sc1ccccc1Cl | 22.2% |  | 
36 | Cc1ccc(NC(=S)N2CCCCCC2)c(C)c1 | -3.47% | 6.51 µM [rising, single point] | 
37 | CCn1c(CNC(=O)COc2ccc(C(C)C)cc2)nnc1SCC(=O)Nc1ccccc1F | 18% | 1.84 µM [falling, partial curve] | 
38 | CCOC(=O)C1CCCN(C(=O)c2ccc3c(=O)n(CCOC)c(=S)[nH]c3c2)C1 (centres undefined) | -22.2% | 29.1 µM [falling, single point] | 

Row | Structure (SMILES) | cell number change | AC50 [1] | AC50 [2]
39 | CCOC(=O)C(C(=O)NCc1ccc(F)cc1)c1ncc(C(F)(F)F)cc1Cl (centres undefined) | -18.5% | 4.11 µM [rising, full curve] | 
40 | COc1ccc(OCCC(=O)NCCN2CCOCC2)cc1 | 59% | 29.1 µM [rising, single point] | 
41 | CCCOC(=O)c1ccc(OC(=O)c2ccco2)cc1 | -11.6% | 2.31 µM [falling, full curve] | 
42 | COC(=O)/N=C/c1c(NCc2ccccc2)nc2c(C)cccn2c1=O |  | 0.58 µM [rising, single point] | 2.31 µM [rising, partial curve]
43 | CCOc1ccc(NC(=O)CN2CCN(CC(=O)Nc3ccc(Cl)c(C(F)(F)F)c3)CC2)cc1 | -2.53% | 0.82 µM [falling, full curve] | 
44 | O=C(COC(=O)C1CCN(c2ccc(C(F)(F)F)cn2)CC1)c1ccc(F)cc1 | 1.96% | 25.9 µM [falling, single point] | 
45 | CC(=O)c1cccc(S(=O)(=O)NCCCN2CCOCC2)c1 | -6.89% | 0.58 µM [falling, single point] | 
46 | COc1cccc2cc(C(C)N(CCCN3CCOCC3)C(=S)Nc3ccccc3C)oc12 (centres undefined) | -15.6% | 7.31 µM [falling, single point] | 0.058 µM [falling, full curve, poor fit]
47 | N#Cc1ccc(C2=NC(C(F)(F)F)(C(F)(F)F)c3c(n(Cc4ccco4)c(=O)[nH]c3=O)N2)cc1 |  | 0.103 µM [falling, full curve, poor fit] | 
48 | CCc1ccc2c(c1)cc(CN(C(=S)Nc1ccccc1Cl)C1CC1)c1nnnn12 | 6.07% | 1.03 µM [rising, full curve] | 0.517 µM [rising, partial curve]
49 | CCCCNC(=O)C1(O)c2cc(Br)ccc2NC(=O)N1c1cccc(OC)c1 (centres undefined) | 22.4% | 32.6 µM [rising, single point] | 
50 | COc1ccc(C2/C(=C(\O)c3ccc4c(c3)OCCO4)C(=O)C(=O)N2CCCn2ccnc2)cc1 (centres undefined) | 9.91% | 0.651 µM [falling, single point] | 
51 | COc1ccc(C2C3=C(Nc4ncnn42)c2ccccc2CCC3)cc1 (centres undefined) | -6.98% | 1.46 µM [rising, full curve] | 
52 | CC1=C(C(=O)Nc2ccccn2)C(c2ccc(N(C)C)cc2)n2ncnc2N1 (centres undefined) | -23.3% | 29.1 µM [falling, single point] | 
53 | CCN(CC)C(=O)C1CCN(S(=O)(=O)c2ccc(C3CNC(=O)C3)cc2)CC1 (centres undefined) | 9.93% | 3.66 µM [falling, single point] | 
54 | COc1ccc(-c2nc3c4c(ncn3n2)-c2ccccc2CC42CCCC2)cc1 | -9.94% | 6.51 µM [falling, single point] | 
55 | O=C(Nc1ccccc1)Nc1ccccn1 | 16.7% and 1.6% | 82 nM [rising, full curve, poor fit] and 3.66 µM [rising, single point] | 0.231 µM [rising, full curve, poor fit]
56 | S=C(Nc1ccc(Oc2ccccc2)cc1)N(CCCN1CCOCC1)Cc1ccccn1 | -33.8% |  | 32.6 µM [falling, single point]
57 | CCCCc1nnc(NC(=O)c2ccc3[nH]c(=O)c(=O)[nH]c3c2)s1 | 2.67% | 23.1 µM [rising, single point] | 
